# Laboratory results: article PMC3738564
# These are yes or no findings as the source states them, for the method shown. In cells and extracts the contact can be indirect. For part of these data: A result given as binding can be weak or reduced; the word gives no strength.
# Key:
# [1] = molecular target: T1, β-dystroglycan (mouse (endogenous in skeletal muscle)) (UniProt Q62165); assay: co-IP; β-dystroglycan precipitated with MANDAG2 from mdx/Utrn-/- (no dystrophin, no utrophin) mouse quadriceps lysate (1% digitonin, 0.05% NP-40); Western blot
# T1 sequence: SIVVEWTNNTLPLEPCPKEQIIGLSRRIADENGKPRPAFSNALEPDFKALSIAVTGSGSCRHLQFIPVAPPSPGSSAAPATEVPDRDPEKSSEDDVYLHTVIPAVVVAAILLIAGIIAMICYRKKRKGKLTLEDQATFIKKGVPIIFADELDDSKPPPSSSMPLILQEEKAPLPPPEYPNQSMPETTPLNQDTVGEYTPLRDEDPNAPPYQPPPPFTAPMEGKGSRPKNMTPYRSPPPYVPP
# [2] = molecular target: T1, β-dystroglycan (mouse (endogenous in skeletal muscle)); assay: co-IP; β-dystroglycan precipitated with MANDAG2 on protein G beads from wild type mouse quadriceps lysate (1% digitonin, 0.05% NP-40; 1 mg protein); Western blot; also done on mdx and mdx/Utrn-/- lysates
# [3] = molecular target: T1, β-dystroglycan (mouse (endogenous in skeletal muscle)); assay: co-IP; β-dystroglycan precipitated with MANDAG2 from mdx (dystrophin-deficient) mouse quadriceps lysate (1% digitonin, 0.05% NP-40); Western blot
binding [1],binding [2],Substance,binding [3]
binds weakly,binds,α1-dystrobrevin (from UniProt Q9D2N4-2),
binds weakly,binds,α2-dystrobrevin (mouse (endogenous in skeletal muscle)),
,binds,α3-dystrobrevin (mouse (endogenous in skeletal muscle)),no binding (only in mdx muscle (no dystrophin))
